The list is a part of this screen's results and no random one: it is rich in T/C values a quarter to a half above the control, in often repeated tests (any T/C) and in doses without a T/C. Further doses and runs are listed elsewhere. T/C: endpoint of the treated group in % of that of the vehicle group. Some entries give survivors of the animals treated and no T/C: the source holds a T/C of zero for them, seemingly a mark for toxic or unscored doses. Some doses without a T/C left all or most animals alive at the check, yet need not have been tolerated: the source hardly ever lists a survival T/C far under the control, and the zero likely stands for such cases as well. Counts of survivors are from the toxicity check (mostly the fifth day) where no day follows; animals may have died later. Schedules are NCI's codes, read here as Q, the interval in days (D) or hours (H), X, the number of doses. Some entries were tested several times; the results are listed from low to high. Some molecules as drawn cover several salts, stereoisomers or complexes of the source; a dose is that of the sample tested. For survival time, this PubChem deposit counts one and a half times the control or more as active, and values a quarter to a half above the control carry no call in these data; other NCI protocols may use other cut-offs. Some T/C values are followed by the survivors on the day toxicity was checked, most often the fifth; without a count, all were alive then.

The assay has as its system P388 leukemia ip, CD2F1 mice, survival T/C. The assay is described as follows: NCI In Vivo Anticancer Drug Screen. Data for tumor model P388 Leukemia (intraperitoneal) in CD2F1 (CDF1) mice. Conditions: T/C endpoint: median survival time, higher T/C = longer survival.
Where [1] appears, read: dose: 120.0 mg/kg/injection, schedule: Q01DX005 (ip), vehicle: Klucel (hydroxypropylcellulose) (HPC).
[2] abbreviates: dose: 50.0 mg/kg/injection, schedule: Q01DX009 (ip), vehicle: saline.
Where [3] appears, read: dose: 50.0 mg/kg/injection, schedule: Q01DX005 (ip), vehicle: Klucel (hydroxypropylcellulose) (HPC).
[4] abbreviates: dose: 100.0 mg/kg/injection, schedule: Q01DX005 (ip), vehicle: Klucel (hydroxypropylcellulose) (HPC).
Where [5] appears, read: dose: 200.0 mg/kg/injection, schedule: Q01DX005 (ip), vehicle: Klucel (hydroxypropylcellulose) (HPC).

As to `Cc1c2cc[n+](C)cc2c(COC2OC(CO)C(O)C2O)c2c3ccccc3n(C)c12` (stereo unspecified), the T/C reads like this: (dose: 15.0 mg/kg/injection, schedule: Q01DX005 (ip), vehicle: Klucel (hydroxypropylcellulose) (HPC)) 127 % of control; (dose: 30.0 mg/kg/injection, schedule: Q01DX005 (ip), vehicle: Klucel (hydroxypropylcellulose) (HPC)) 125 % of control [5 of 6 alive]; (dose: 60.0 mg/kg/injection, schedule: Q01DX005 (ip), vehicle: Klucel (hydroxypropylcellulose) (HPC)) 145 % of control [4 of 6 alive]; under setting [1], 141 % of control. Further, the survivor count under setting [1] is recorded as 0 of 6 and the survivor count (dose: 240.0 mg/kg/injection, schedule: Q01DX005 (ip), vehicle: Klucel (hydroxypropylcellulose) (HPC)) is 2 of 6.
`COc1ccc2c(c1)N(CCC1CCCCN1C)c1ccccc1S2` (stereo unspecified): the survivor count (dose: 100.0 mg/kg/injection, schedule: Q04DX003 (ip), vehicle: saline) is reported as 3 of 6.
Turning to `NCC(=O)OCN1C(=O)C2C3C=CC(C2C1=O)C1C2C(=O)N(COC(=O)CN)C(=O)C2C31` (stereo unspecified), the T/C reads like this: (dose: 100.0 mg/kg/injection, schedule: Q01DX009 (ip), vehicle: water) 135 and 149 % of control; (dose: 200.0 mg/kg/injection, schedule: Q01DX009 (ip), vehicle: water) 132 % of control. For the same compound, the survivor count (dose: 206.0 mg/kg/injection, schedule: Q01DX009 (ip), vehicle: water) is 2 of 6.
Turning to `CNC1=C(C(=O)c2ccccc2)CCC1`, under setting [2], the T/C is 129 % of control and the survivor count is given as 5 of 6.
Take `COc1ccc(-n2cc[n+](C)c2/C=N\O)cc1`: the survivor count (dose: 200.0 mg/kg/injection, schedule: Q01DX009 (ip), vehicle: saline with Tween-80) is 0 of 6.
As to `CC(=O)NCc1cc(C)c(CCl)cc1CCl`, the survivor count reads like this: (dose: 25.0 mg/kg/injection, schedule: Q01DX009 (ip), vehicle: distilled water + Tween-80) 3 of 3; (dose: 50.0 mg/kg/injection, schedule: Q01DX009 (ip), vehicle: distilled water + Tween-80) 0 of 3 and 3 of 6; (dose: 100.0 mg/kg/injection, schedule: Q01DX009 (ip), vehicle: distilled water + Tween-80) 0 of 3.
Take `C1CCN2CC3CC(CN4CCCC[C@@H]34)[C@@H]2C1`: the survivor count is 0 of 6 under setting [3], 0 of 6 under setting [4] and 0 of 6 under setting [5].
As to `Cc1c(-c2ccccc2)ccnc1/C=N/NC(=S)Nc1ccccc1`, the survivor count is 4 of 6 (dose: 1.56 mg/kg/injection, schedule: Q01DX009 (ip), vehicle: saline); 5 of 6 (dose: 3.12 mg/kg/injection, schedule: Q01DX009 (ip), vehicle: saline); 5 of 6 (dose: 12.5 mg/kg/injection, schedule: Q01DX009 (ip), vehicle: saline with Tween-80); 6 of 6 (dose: 100.0 mg/kg/injection, schedule: Q01DX009 (ip), vehicle: saline); 6 of 6 (dose: 200.0 mg/kg/injection, schedule: Q01DX009 (ip), vehicle: saline).
Take `N=C(N)Sc1cc(O)ccc1O`: the survivor count (dose: 300.0 mg/kg/injection, schedule: Q01DX009 (ip), vehicle: saline with Tween-80) is given as 6 of 6.
Regarding `CC1=C(O)C(=O)C=C2C1=CC=C1[C@@]2(C)CCC2(C)[C@@H]3C[C@@H](C)C(=O)C[C@]3(C)CC[C@]12C` (stereo partly specified), the survivor count (dose: 32.5 mg/kg/injection, schedule: Q01DX005 (ip), vehicle: Klucel (hydroxypropylcellulose) (HPC)) is on record as 6 of 6; the survivor count (dose: 65.0 mg/kg/injection, schedule: Q01DX005 (ip), vehicle: Klucel (hydroxypropylcellulose) (HPC)) is recorded as 6 of 6; the survivor count (dose: 130.0 mg/kg/injection, schedule: Q01DX005 (ip), vehicle: Klucel (hydroxypropylcellulose) (HPC)) was 6 of 6.
With `C=C(Cl)C(=NC(C)(C)C)N(CC)CC`, the survivor count by setting is: under setting [4], 1 of 5; under setting [5], 0 of 5.
As for `CC(C)NC(C#N)C(C)C` (stereo unspecified), the survivor count reads like this: (dose: 25.0 mg/kg/injection, schedule: Q01DX005 (ip), vehicle: Klucel (hydroxypropylcellulose) (HPC)) 0 of 6; under setting [3], 0 of 6; under setting [4], 0 of 6; under setting [5], 0 of 6.
As for `Cc1ccc(NCCN(C)C)c2c(=O)c3cc(O)ccc3sc12`, the T/C runs as follows: (dose: 1.0 mg/kg/injection, schedule: Q01DX009 (ip), vehicle: Klucel (hydroxypropylcellulose) (HPC)) 130 % of control; (dose: 2.0 mg/kg/injection, schedule: Q01DX009 (ip), vehicle: Klucel (hydroxypropylcellulose) (HPC)) 139 % of control; (dose: 2.0 mg/kg/injection, schedule: Q01DX009 (ip), vehicle: saline with Tween-80) 125 % of control; (dose: 4.0 mg/kg/injection, schedule: Q01DX009 (ip), vehicle: Klucel (hydroxypropylcellulose) (HPC)) 141 % of control; (dose: 4.0 mg/kg/injection, schedule: Q01DX009 (ip), vehicle: saline with Tween-80) 125 % of control; (dose: 8.0 mg/kg/injection, schedule: Q01DX009 (ip), vehicle: saline with Tween-80) 136 % of control. Also, the survivor count runs as follows: (dose: 50.0 mg/kg/injection, schedule: Q01DX009 (ip), vehicle: Klucel (hydroxypropylcellulose) (HPC)) 5 of 5; (dose: 64.0 mg/kg/injection, schedule: Q01DX009 (ip), vehicle: saline with Tween-80) 5 of 6; (dose: 75.0 mg/kg/injection, schedule: Q01DX009 (ip), vehicle: Klucel (hydroxypropylcellulose) (HPC)) 5 of 5; (dose: 128.0 mg/kg/injection, schedule: Q01DX009 (ip), vehicle: Klucel (hydroxypropylcellulose) (HPC)) 5 of 6; (dose: 128.0 mg/kg/injection, schedule: Q01DX009 (ip), vehicle: saline with Tween-80) 6 of 6; (dose: 200.0 mg/kg/injection, schedule: Q01DX009 (ip), vehicle: Klucel (hydroxypropylcellulose) (HPC)) 5 of 6.
Regarding `COc1cc(NS(C)(=O)=O)ccc1Nc1c2ccc([N+](=O)[O-])cc2nc2c(C)c(C)ccc12`, the T/C is 129 % of control (dose: 0.1 mg/kg/injection, schedule: Q01DX009 (ip), vehicle: saline with Tween-80); 130 % of control (dose: 0.15 mg/kg/injection, schedule: Q01DX009 (ip), vehicle: saline with Tween-80); 143 % of control (dose: 0.33 mg/kg/injection, schedule: Q01DX009 (ip), vehicle: saline with Tween-80); 139 % of control (dose: 0.5 mg/kg/injection, schedule: Q01DX009 (ip), vehicle: saline with Tween-80); 148 % of control (dose: 0.75 mg/kg/injection, schedule: Q01DX009 (ip), vehicle: saline with Tween-80). In addition, the survivor count by setting is: (dose: 25.0 mg/kg/injection, schedule: Q01DX009 (ip), vehicle: saline with Tween-80) 5 of 6; (dose: 50.0 mg/kg/injection, schedule: Q01DX009 (ip), vehicle: saline with Tween-80) 5 of 6; (dose: 100.0 mg/kg/injection, schedule: Q01DX009 (ip), vehicle: saline with Tween-80) 5 of 6.
With `CCCCN(CCCC)CCC(=O)c1ccc(Cl)c2ccccc12`, where the note is “dose: 100.0 mg/kg/injection, schedule: Q01DX005 (ip), vehicle: saline with Tween-80”, the survivor count is on record as 3 of 6.
Regarding `CCCCCCCCCCCCCC(C)NCc1ccccc1` (stereo unspecified), the survivor count (dose: 100.0 mg/kg/injection, schedule: Q04DX003 (ip), vehicle: saline with Tween-80) is listed as 4 of 6.
As for `c1cncc(-c2n[nH]c3c2CCc2ccccc2-3)c1`, the survivor count (dose: 9.4 mg/kg/injection, schedule: Q01DX009 (ip), vehicle: other) is 3 of 3 and the survivor count (dose: 18.8 mg/kg/injection, schedule: Q01DX009 (ip), vehicle: other) is recorded as 3 of 3. The T/C (dose: 25.0 mg/kg/injection, schedule: Q01DX009 (ip), vehicle: other) was 126 % of control.
On to `O=C(/N=C1\N=Nc2nc(C3(c4nc5n(c4O)/C(=N/C(=O)Nc4ccc(Cl)cc4)N=N5)CCCC3=O)c(O)n21)Nc1ccc(Cl)cc1` (stereo unspecified), for which the survivor count (dose: 240.0 mg/kg/injection, schedule: Q01DX005 (ip), vehicle: saline with Tween-80) is recorded as 6 of 6.
For the compound `CCCCCN(CCNc1cc(OC)cc2cccnc12)C(C)CC` (stereo unspecified), the survivor count (dose: 200.0 mg/kg/injection, schedule: Q01DX005 (ip), vehicle: saline) was 1 of 5.

These data come from PubChem BioAssay AID330 (DTP/NCI, 2004).
